# Test results: patent US6759413B2, “Use of cox-2 inhibitors as gastroprokinetics” (SmithKline Beecham Corporation, priority 2000, dated 2004)
# For at least one compound, name, drawing or mass did not settle the structure.
# Tests used:
# Beagle dogs = experiment: Dog model of gastric emptying (solid phase, gamma camera); format: in vivo; conditions: po for three days, measured on fourth day after am dosing; cisapride 0.14 mg/kg TID, celecoxib 2.8 mg/kg BID, 8-acetyl compound 1.2 mg/kg BID; FIG. 3
# Protocol: Activity In Vivo: Dog Model of Gastric Emptying
# Beagle dogs were treated for three days with test agents (po administration): placebo BID; cisapride 0.14 mg/kg TID; celecoxib 2.8 mg/kg BID; or 8-acetyl-3-(4-fluoro-phenyl)-2-(4-methanesulfonyl-phenyl)-imidazo[1,2-a]pyridine 1.2 mg/kg BID. Solid phase gastric emptying was measured on the fourth day following am dosing. The same three animals were used for evaluation of each agent, thus reducing any interanimal variations.
# Isotope-labeled solid food was fed to the dogs for their morning meal and animals were then placed under a gamma camera and scans performed over the 24 to 36 hours.
# dogs = experiment: Dog model of lower esophageal sphincter pressure (LESP); format: in vivo; conditions: 3 days treatment, day 4 am dose; cisapride 0.14 mg/kg TID, celecoxib 1.2 mg/kg BID; FIG. 4
# Protocol: Activity In Vivo: Dog Model of Lower Esophageal Sphincter Pressure (LESP) Six adult dogs were instrumented with 14 French esophagostomy tubes. Animals were treated for 3 days with placebo (BID), cisapride (0.14 mg/kg TID) or celecoxib (1.2 mg/kg BID). On day 4 dogs received their am dose of test agent and water perfused manometry catheters were inserted through the esophagostomy tubes. Lower esophageal sphincter pressures (LESPs) were then monitored.
smiles,measurement,setting,value
Cc1ccc(-c2cc(C(F)(F)F)nn2-c2ccc(S(N)(=O)=O)cc2)cc1 [celecoxib],rate of solid phase gastric emptying,Beagle dogs,increased the rate of gastric emptying
same,lower esophageal sphincter pressure (LESP) compared to placebo,dogs,increase LESP to a similar degree as cisapride
